Article PMC6527222 (PLoS ONE, 2019)

System: JB6 P+ cells
Experiment: Anchorage-independent growth assay in soft agar (EGF-induced JB6 P+ colony formation)
Format: cell-based
Conditions: Mus musculus, 336 h, 10 ng/mL EGF, 14 days; negative log value
Method: Ten ng/mL EGF was used to promote the anchorage-independent growth of JB6 cells. […] Plates were incubated at 37°C, 5% CO2 for 14 days. Colonies with greater than ten cells were counted manually under a microscope. […] Normalization allowed for comparison of data over a range of JB6 P+ cell cultures, passages, and experimental time for the shRNA studies, as well as control for variation in the EGF response, and importantly allowed for a direct comparison to all concentration-response experiments including the toxicity assays. Data are expressed as mean ± SD and were analyzed using GraphPad Prism version 7.02 (La Jolla, CA). All group sizes were determined via previous studies to provide statistically meaningful data. […] Additionally, not all GraphPad Prism fitted data was appropriate as the predicted bottom of the curve or IC50 was calculated as large negative values, which is impossible for cell counts, and thus the IC50 could not be used to compare to proper sigmoidal concentration-response curves. […] The I[…]*PSD is expressed in x-axis units (log [M]) as is an IC50 and it represents the first concentration where it is expected to observe a statistical decrease in the measured signal. […] Using the formula provided by GraphPad Prism or a straight line for the point-to-point graphs, the X-axis value for point Y was determined. […]

Structure (SMILES): CC(C)NCC(O)COc1cccc2ccccc12 (stereo not shown) [Propranolol]
- IC50: 9.33 µM
